Source: PubChem BioAssay AID504834 (National Center for Advancing Translational Sciences (NCATS), 2011)
Several values for one entry are separate records, joined by “and”; a condition that tells them apart may be missing. Identical values can stand only once. The campaign covered roughly 320,000 compounds. About 22,000 (6.9%) were called active. This list was built around the results that the source calls inconclusive (neither active nor inactive); the mix of calls is not that of the screen. Calls follow the shape of the dose curve; as a rule, active = well fitted inhibition curve with a large enough effect; inconclusive = small, poorly fitted or top-dose-only effect, or another doubt; inactive = no such curve, though single readings can be large or run the other way. Potencies beside an inconclusive call are fits to weak or partial responses and may not hold up.
% is scaled to controls: 0 for no effect and ±100 for the full control effect; potency is read from the fitted curve at half-maximal effect.

Assay: Primary qHTS for delayed death inhibitors of the malarial parasite plastid, 96 hour incubation
Conditions: P. falciparum luciferase reporter growth; series mostly up to 28.7 µM; activity change, negative = inhibition: at the top concentration
Outline: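 Luminescence readout: decreased luciferase signal marks inhibited growth of reporter-expressing P. falciparum in infected red cells (2% hematocrit, 0.05% parasitemia final), exposed to compound two generations (96 h, 37 C, 5% CO2).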
With `Cc1ccc(NC(=O)CSc2nnc(-c3ccco3)o2)cc1` the “activity change, negative = inhibition” value was inactive: 28.2%. With `COc1ccc(NC(=O)c2nn(C)c(C(=O)Nc3ccc(OC)cc3)c2[N+](=O)[O-])cc1` the Potency was inconclusive: 18.5 µM [inhibitor, single point]. With `COc1cc(C=O)ccc1Oc1nnnn1-c1ccc(C(N)=O)cc1` the “activity change, negative = inhibition” value was inactive: 0.495%. With `O=C(Nc1ccc(S(=O)(=O)N2CCCC2)cc1)N1c2ccccc2Sc2ccccc21` the Potency was inconclusive: 20.8 µM [inhibitor, partial curve, poor fit]. With `COc1ccc(CN(C)C(=O)c2[nH]c(C)c(C(C)=O)c2C)cc1F` the “activity change, negative = inhibition” value was inactive: -16.7%. In the case of `COc1cccc(N2CCN(c3ccc4nnc(CCC(=O)Nc5ccc(C)cn5)n4n3)CC2)c1`, the Potency is reported as inconclusive: 13.1 µM [inhibitor, single point]. In the case of `COc1ccc(CN2C(=O)c3ccccc3C2C(=O)NC2CCCCCC2)c(OC)c1` (stereo not drawn), the Potency is reported as inconclusive: 18.5 µM [inhibitor, single point]. For `CC(C)(C)c1ccc(S(=O)(=O)NCc2ccc(C(=O)N3CCCC3)cc2)cc1`, the Potency was inconclusive: 13.1 µM [inhibitor, partial curve, poor fit]. With `O=C(N/N=C\c1cc([N+](=O)[O-])ccc1N1CCCC1)c1ccccn1` the “activity change, negative = inhibition” value was inactive: -17.9%. With `O=C(COC(=O)Cn1c(C(F)(F)F)nc2ccccc21)Nc1ccc2c(c1)OCCO2` the “activity change, negative = inhibition” value was inactive: -6.59%. In the case of `S=C1NCN(Cc2ccco2)CN1c1cccc2ccccc12`, the Potency is reported as inconclusive: 9.28 µM [inhibitor, single point]. For `C=CC[n+]1c(-c2ccc(OC)cc2)csc1NNC(=O)Nc1ccccc1`, the Potency was inconclusive: 14.7 µM [inhibitor, single point]. For `COc1cccc(/C=C/C(=O)OCC(=O)NCCC2=CCCCC2)c1`, the “activity change, negative = inhibition” value was inactive: 11.8%. With `CCN(C(=O)c1ccc(NC(=O)Cc2ccccc2)cc1)c1ccccc1` the Potency was inconclusive: 16.5 µM [inhibitor, partial curve, poor fit]. For `Cc1cccc(C)c1OC(=O)CCN1C(=O)C2C3C=CC(C4CC34)C2C1=O` (stereo not drawn), the “activity change, negative = inhibition” value was inactive: 18.4%. For `Cc1cc(NS(=O)(=O)c2ccc(NC(=O)/C=C/c3c(F)cccc3Cl)cc2)no1`, the Potency was inconclusive: 1.31 µM [inhibitor, full curve]. For `CC(=O)NC(Nc1nc2c(s1)CCCC2)(C(F)(F)F)C(F)(F)F`, the Potency was inconclusive: 18.5 µM [inhibitor, single point]. With `O=c1c2ccccc2nc2n1CCCCC2` the Potency was inconclusive: 18.5 µM [inhibitor, single point]. For `CC(=O)O[C@H]1C(=O)[C@@]2(C)C([C@H](OC(=O)c3ccccc3)[C@]3(O)C[C@H](OC(=O)[C@H](O)[C@@H](NC(=O)Cc4ccccc4)c4ccccc4)C(C)=C1C3(C)C)[C@]1(OC(C)=O)CO[C@@H]1C[C@@H]2O` (stereo partly drawn), the Potency was active: 0.738 µM. With `Cc1cc(C)nc(NS(=O)(=O)c2ccc(NC(=O)c3ccco3)cc2)n1` the “activity change, negative = inhibition” value was inactive: 0%. For `Cc1ccccc1-n1nnnc1SCC(=O)c1c(N)n(C2CC2)c(=O)[nH]c1=O`, the Potency was inconclusive: 3.7 µM [inhibitor, partial curve]. With `O=C(NCc1ccc2c(c1)OCO2)c1cccnc1` the Potency was inconclusive: 18.5 µM [inhibitor, single point]. In the case of `CC[C@H](C)C(=O)O[C@H]1C[C@@H](C)C=C2C=C[C@H](C)[C@H](CC[C@@H]3C[C@@H](O)CC(=O)O3)[C@H]21`, the Potency is reported as “inactive and inconclusive: 14.7 µM [inhibitor, single point] and inconclusive: 9.28 µM [inhibitor, single point]”. In the case of `O=C(NCCSCc1ccccc1)c1ccc(F)cc1`, the Potency is reported as inconclusive: 13.1 µM [inhibitor, single point]. In the case of `CCc1nnc(NC(=O)c2ccc(Cl)nc2)s1`, the “activity change, negative = inhibition” value is reported as inactive: 60.6%. In the case of `C/C(CC(=O)Nc1ccc(OCc2ccccc2)cc1)=N\NC(=O)C(=O)Nc1cccc(C)c1`, the Potency is reported as inconclusive: 3.7 µM [inhibitor, full curve, poor fit]. For `CN(Cc1ccccc1)C(=O)c1[nH]cnc1C(=O)N[C@@H](Cc1ccccc1)C(=O)OCc1ccccc1`, the Potency was inconclusive: 10.4 µM [inhibitor, partial curve, poor fit]. For `O=C(NCc1ccccc1Cl)C1CCC(CNc2nc(=S)[nH]c3ccccc23)CC1` (stereo not drawn), the Potency was inconclusive: 2.62 µM [inhibitor, partial curve, poor fit]. With `COc1ccc2cc(C(=O)N3CCN(C)CC3)[nH]c2c1` the “activity change, negative = inhibition” value was inactive: 229%. For `CCCCNC(=O)c1nn(-c2ccccc2OC)c(=O)c2ccccc12`, the Potency was inconclusive: 0.0415 µM [inhibitor, full curve, poor fit]. With `COc1ccccc1CNC(=O)COC(=O)c1ccc(-n2cnnn2)cc1` the “activity change, negative = inhibition” value was inactive: 19.7%. With `O=S(=O)(NCc1ccc(Cl)cc1)NCc1ccccc1F` the “activity change, negative = inhibition” value was inactive: 24.2%. In the case of `COc1ccc(OC)c(CC(=O)Nc2cc(S(=O)(=O)N3CCCCC3)ccc2C)c1`, the Potency is reported as inconclusive: 14.7 µM [inhibitor, partial curve, poor fit]. In the case of `COC(=O)C1=C(O)CSC1=Nc1ccccc1`, the Potency is reported as inconclusive: 18.5 µM [inhibitor, single point]. For `Clc1ccc(CSc2nnc(/C=C/c3ccccc3)o2)cc1`, the “activity change, negative = inhibition” value was inactive: 45%. In the case of `COc1ccc(-c2cn[nH]c2-c2ccc(OCc3ccccc3F)cc2O)cc1OC`, the Potency is reported as inconclusive: 13.1 µM [inhibitor, partial curve, poor fit]. With `CC(=O)c1cc2c(=O)c3cc(C)ccc3oc2nc1C` the “activity change, negative = inhibition” value was inactive: 130%. In the case of `COc1ccc(CCNC(=O)Cn2cnc3c(cnn3-c3ccccc3Cl)c2=O)cc1OC`, the Potency is reported as inconclusive: 13.1 µM [inhibitor, single point]. With `Cc1cccc(Cn2nnc3c2C(=O)c2ccccc2C3=O)c1` the Potency was active: 2.94 µM. For `CC(C)C(=O)NC(=S)N1CCc2ccccc21`, the “activity change, negative = inhibition” value was inactive: -15.2%. In the case of `Clc1ccc(OCCn2c(-c3ccco3)nc3ccccc32)cc1`, the Potency is reported as active: 11.7 µM. For `CCN1CCCC1CN(Cc1cc2cc(C)cc(C)c2[nH]c1=O)C(=O)Nc1ccccc1OC` (stereo not drawn), the “activity change, negative = inhibition” value was inactive: 34.5%. In the case of `Fc1ccc(Nc2nnc(C(F)(F)F)s2)cc1`, the Potency is reported as inconclusive: 18.5 µM [inhibitor, single point].
